This note sets out measurements from publication PMC4980451.

Sequences of proteins named here, by UniProt entry; tags and fusion partners are left off.
UniProt O08586: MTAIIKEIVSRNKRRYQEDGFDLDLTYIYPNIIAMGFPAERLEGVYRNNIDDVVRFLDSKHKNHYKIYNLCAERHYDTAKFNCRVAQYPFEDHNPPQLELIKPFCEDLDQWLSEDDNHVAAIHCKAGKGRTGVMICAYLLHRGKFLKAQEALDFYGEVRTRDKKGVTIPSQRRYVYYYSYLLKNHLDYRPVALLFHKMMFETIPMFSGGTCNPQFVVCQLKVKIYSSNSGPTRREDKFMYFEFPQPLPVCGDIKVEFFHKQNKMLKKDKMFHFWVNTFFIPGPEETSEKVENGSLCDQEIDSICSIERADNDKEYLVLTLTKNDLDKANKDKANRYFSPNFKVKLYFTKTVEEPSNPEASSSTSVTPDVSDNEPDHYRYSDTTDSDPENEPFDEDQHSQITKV

In the experiment the target is Pten (endogenous, Pten+/+ MEFs) (mouse (endogenous in MEFs)) (UniProt O08586). The experiment in a line: co-IP; endogenous proteins; cell lysates (HeLa; Pten+/+ MEFs; synchronized samples 6-10 h after release from double thymidine block) immunoprecipitated with an anti-PTEN monoclonal antibody, EG5 detected by Western blotting.

These are yes or no findings as the source states them, for the method shown. Binding seen in cells or lysates may run through a third protein. Some entries that bind do so weakly or less than the wild type.

B1: EG5 (endogenous, Pten+/+ MEFs) (protein, UniProt Q6P9P6 1-1052)
chain: MASQPSSLKKKEEKGRNIQVVVRCRPFNLAERKANAHSVVECDHARKEVSVRTAGLTDKTSKKTYTFDMVFGASTKQIDVYRSVVCPILDEVIMGYNCTIFAYGQTGTGKTFTMEGERSPNEVYTWEEDPLAGIIPRTLHQIFEKLTDNGTEFSVKVSLLEIYNEELFDLLSPSSDVSERLQMFDDPRNKRGVIIKGLEEITVHNKDEVYQILEKGAAKRTTAATLMNAYSSRSHSVFSVTIHMKETTIDGEELVKIGKLNLVDLAGSENIGRSGAVDKRAREAGNINQSLLTLGRVITALVERTPHIPYRESKLTRILQDSLGGRTRTSIIATISPASFNLEETLSTLEYAHRAKNIMNKPEVNQKLTKKALIKEYTEEIERLKRDLAAAREKNGVYISEESFRAMNGKVTVQEEQIVELVEKIAVLEEELSKATELFMDSKNELDQCKSDLQTKTQELETTQKHLQETKLQLVKEEYVSSALERTEKTLHDTASKLLNTVKETTRAVSGLHSKLDRKRAIDEHNAEAQESFGKNLNSLFNNMEELIKDGSAKQKAMLDVHKTLFGNLMSSSVSALDTITTTALESLVSIPENVSARVSQISDMILEEQSLAAQSKSVLQGLIDELVTDLFTSLKTIVAPSVVSILNINKQLQHIFRASSTVAEKVEDQKREIDSFLSILCNNLHELRENTVSSLVESQKLCGDLTEDLKTIKETHSQELCQLSSSWAERFCALEKKYENIQKPLNSIQENTELRSTDIINKTTVHSKKILAESDGLLQELRHFNQEGTQLVEESVGHCSSLNSNLETVSQEITQKCGTLNTSTVHFSDQWASCLSKRKEELENLMEFVNGCCKASSSEITKKVREQSAAVANQHSSFVAQMTSDEESCKAGSLELDKTIKTGLTKLNCFLKQDLKLDIPTGMTPERKKYLYPTTLVRTEPREQLLDQLQKKQPPMMLNSSEASKETSQDMDEEREALEQCTEELVSPETTEHPSADCSSSRGLPFFQRKKPHGKDKENRGLNPVEKYKVEEASDLSISKSRLPLHTSINL
On to B1, for which the binding entry is on record as “binds”.
